Drawing on patent US20100279402A1, this text covers binding for two molecules.

Results are given in words; binding and its absence hold for the method and conditions named. For some of these results: Binding seen in cells or lysates may run through a third protein. Some binding calls cover weakened binding; strength is not graded here. Tags and fused reporters may be left off the sequences shown.

In test [1] the target is T1, Methanosarcina mazei (Mm) proteasome subunit β with C-terminal 6×histidine (Methanosarcina mazei) (UniProt Q8PZ04).
T1 sequence: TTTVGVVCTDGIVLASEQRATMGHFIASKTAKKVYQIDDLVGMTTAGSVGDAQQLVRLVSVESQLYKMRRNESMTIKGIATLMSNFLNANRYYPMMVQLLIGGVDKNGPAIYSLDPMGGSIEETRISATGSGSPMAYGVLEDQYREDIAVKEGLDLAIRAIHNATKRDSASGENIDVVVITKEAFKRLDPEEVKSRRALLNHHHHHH
The experiment in a line: Ni-NTA pull down of His-tagged β from HEK293 lysate.

The target in test [2] is T1, Methanosarcina mazei (Mm) proteasome subunit β with C-terminal 6×histidine (Methanosarcina mazei). The test can be described thus: glycerol gradient ultracentrifugation, co-fractionation in fractions 20-25/37.

B1: Methanosarcina mazei (Mm) proteasome subunit α (enzyme)
chain: MQMAPQMGYDRAITVFSPDGRLFQVEYAREAVKRGTTAVGIKAADGVVLLVDKRITSRLVEAESIEKIFQIDDHIGAATSGLVADARSLVDRARVEAQVNRVSYDELIGVEVISKKICDHKQTYTQYGGVRPYGTALLIAGVDDNKPRLFETDPSGALLEYKATAIGAGRNAVVEVFEADYREDMNIDAAILLGMDALYKAAEGKFDAGTLEVGVVSLEDKKFRKLGPEEVENYVHQILEKHKGNENKE
Consider B1, for which the binding entry in test [1] and in test [2] was “binds” in each case.

B2: Methanosarcina mazei (Mm) proteasome Δ(2-13)α subunit (enzyme)
chain: MTVFSPDGRLFQVEYAREAVKRGTTAVGIKAADGVVLLVDKRITSRLVEAESIEKIFQIDDHIGAATSGLVADARSLVDRARVEAQVNRVSYDELIGVEVISKKICDHKQTYTQYGGVRPYGTALLIAGVDDNKPRLFETDPSGALLEYKATAIGAGRNAVVEVFEADYREDMNIDAAILLGMDALYKAAEGKFDAGTLEVGVVSLEDKKFRKLGPEEVENYVHQILEKHKGNENKE
Turning to B2, the binding result in test [1] and in test [2] was “binds” each time.
